According to PubChem BioAssay AID540303 (National Center for Advancing Translational Sciences (NCATS), 2011):
Out of some 330,000 compounds screened, about 1,000 (0.3%) were called active. This list was built around the results that the source calls inconclusive (neither active nor inactive); the mix of calls is not that of the screen. The call rests on the fitted dose curve; in most records, active means well fitted inhibition curve with a large enough effect; inconclusive means small, poorly fitted or top-dose-only effect; inactive means no such curve, though single readings can be large or run the other way; tested in mouse RAW 264.7 cells. A potency beside an inconclusive call is a rough fit, not a confirmed value.

Test: qHTS for Inhibitors of Cell Surface uPA Generation; further: nearly all actives have a fitted effect of over 55% in size
Settings: cell surface uPA generation assay; series mostly up to 38.3 µM
Procedure, shortened: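 RAW 264.7, 4000 cells/well, o/n 37 C; cpd 1:5 dilution, up to 38.3 uM final; 24 h 37 C/5% CO2 with reagent; ATP-Lite lum. High ATP = LF entry blocked.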
Potency means the concentration at half of the fitted maximal effect.

SMILES	Potency
O=C(NC(=S)Nc1ccc(F)cc1)C1CCCCC1	inactive
O=C(N/N=C/c1ccco1)c1cc(-c2ccncc2)nc2ccccc12	inconclusive: 2.82 µM [inhibitor, partial curve, poor fit]
CN1CCN(S(=O)(=O)c2ccc(Oc3cccc(C(F)(F)F)c3)nc2)CC1	inactive
Cn1ncc(Cl)c1C(=O)N/N=C/c1cc2c(cc1[N+](=O)[O-])OCO2	inactive
COc1cccc(N2[C@@H](CC(C)=O)c3ccc(/C=C/C(C)=O)cc3S2(=O)=O)c1	active: 3.16 µM
C/C(=N\N=C(/C)c1cccc(N)c1)c1cccc(N)c1	inactive
CCCC(=O)O[C@]1(C(=O)CO)CC[C@H]2[C@@H]3CCC4=CC(=O)CC[C@]4(C)[C@H]3[C@@H](O)C[C@@]21C	inconclusive: 12.6 µM [inhibitor, partial curve, poor fit]
CCOc1ccccc1NC(=S)NCCc1ccccc1	inconclusive: 11.2 µM [inhibitor, single point]
CCc1cc2c(=O)c(-c3ccon3)c(N)oc2cc1OC	inconclusive: 10 µM [inhibitor, partial curve]
Cc1cc(C(=O)N/N=C\c2cc(C(C)(C)C)ccc2O)n[nH]1	inconclusive: 2.24 µM [inhibitor, partial curve]
CC(C(=O)NCCN1CCOCC1)c1ccc([N+](=O)[O-])cc1 (stereo not drawn)	inconclusive: 1.12 µM [inhibitor, partial curve, poor fit]
COc1ccc(C(=O)NC(=C(Cl)Cl)S(=O)(=O)c2ccc(C)cc2)cc1	inconclusive: 11.2 µM [inhibitor, partial curve, poor fit]
Cc1sc2ncnc(N3CCC(C(=O)NCC(=O)Nc4ccc(F)c(F)c4)CC3)c2c1C	inconclusive: 28.2 µM [inhibitor, single point]
Cc1cn([C@@H](CCCCN)C(=O)NCCCCCCCCCCC(=O)N2CCNCC2)nn1	inactive
COc1ccc(CCNC(=O)COc2ccc(S(=O)(=O)NCC(C)C)cc2Cl)cc1OC	inconclusive: 10 µM [inhibitor, partial curve, poor fit]
CN(C)CCCN(C(=O)CCOc1ccccc1)c1nc2c(F)cccc2s1	inconclusive: 2.51 µM [inhibitor, full curve, poor fit]
Cn1c(NC(=O)C2CC2)cc(=O)n(C)c1=O	inconclusive: 1.26 µM [inhibitor, single point]
Cc1cccc(C(=O)OCC(=O)c2ccc(CC(=O)N3CCOCC3)s2)c1C	inconclusive: 3.55 µM [inhibitor, single point]
COc1ccc(-c2nc(CSCC(=O)N3CCN(C)CC3)c(C)o2)cc1OC	inactive
COc1cccc(/C=N\n2c(C)nnc2C)c1OC	inactive
CCCCN(C)C(=O)C1CCC(CNS(=O)(=O)c2ccc3c(c2)CC(C)N3C(=O)C2CC2)CC1 (stereo not drawn)	inconclusive: 10 µM [inhibitor, single point]
COC(=O)[C@@]1(Cc2ccccc2)[C@@H]2C(=CC(=O)[C@H]2CC(=O)C(=O)N(C)C)CN1C(=O)c1ccccc1	active: 2.82 µM
C[C@H](CO)N1C[C@H](C)[C@@H](CN(C)Cc2ccc(C(=O)Nc3ccccc3N)cc2)Oc2c(NC(=O)C3CCCCC3)cccc2C1=O	inconclusive: 6.31 µM [inhibitor, single point]

SMILES	Potency
Cc1cccc(Nc2cc(C)c3c(O)cccc3n2)c1C	inconclusive: 11.2 µM [inhibitor, partial curve, poor fit]
Cc1cc2nc(-c3ccc[nH]c3=O)[nH]c2cc1C	active: 0.891 µM
Clc1ccc2c(c1)[C@H]1OCC[C@H]1[C@@H](c1ccco1)N2	inconclusive: 12.6 µM [inhibitor, partial curve, poor fit]
O=C1[C@H](Cc2ccccc2)NCCCC[C@H](c2ccco2)N1Cc1ccccc1	inactive
COC1CCCN(C(=O)c2ccc3oc(Cc4ccc(Cl)cc4)nc3c2)C1 (stereo not drawn)	inactive
CC[C@@H](C)[C@H](CN[C@H](CNC)C(C)C)NC[C@@H](C)c1ccc(CC(C)C)cc1	inconclusive: 10 µM [inhibitor, single point]
C/C(=N/OC(=O)c1ccc(C)cc1)c1ccc(N2C(=O)C3CCCCC3C2=O)cc1 (stereo not drawn)	inactive
O=C1c2ccccc2-c2onc3ccc(NCCCn4ccnc4)c1c23	inconclusive: 28.2 µM [inhibitor, single point]
CC1CCN(CCCNC(=O)c2cc3c(Cl)nc4ccccc4c3s2)CC1	inconclusive: 10 µM [inhibitor, partial curve, poor fit]
CC(C)(C)c1ccc2c(c1)OC(C(=O)N/N=C\c1ccc[nH]1)CO2 (stereo not drawn)	inconclusive: 2.82 µM [inhibitor, full curve, poor fit]
COc1ccc(/C=C/C(=O)Nc2cccc(S(=O)(=O)NC3=NCCCCC3)c2)cc1	inconclusive: 11.2 µM [inhibitor, partial curve, poor fit]
CCC(OCC(O)CN1CCCCC1)c1ccccc1 (stereo not drawn)	inconclusive: 0.0079 µM [inhibitor, full curve, poor fit]
CCC(Sc1nnnn1C)C(=O)Nc1ccc(C(C)=O)cc1 (stereo not drawn)	inactive
Cc1cc(Oc2ccc(=O)n(C)n2)nc(SCc2ccccc2)n1	inconclusive: 11.2 µM [inhibitor, single point]
Nc1cc2ccncc2c2ccccc12	inconclusive: 12.6 µM [inhibitor, single point]
CC(C)(C)c1ccc(OCC(=O)Nc2ccc3c4c(cccc24)C(=O)NC3=O)cc1	inconclusive: 5.01 µM [inhibitor, single point]
CCN1CCN(CCCNC(=O)C2CCCN(c3nc4c(C)cc(C)cc4s3)C2)CC1 (stereo not drawn)	inconclusive: 12.6 µM [inhibitor, single point]
Cc1cc(C)c(CN2CCN(CCCn3ccc(NC(=O)OCc4ccccc4)nc3=O)CC2)c(C)c1	inconclusive: 15.8 µM [inhibitor, single point]
CSc1nnc(N2C(=O)C(O)=C(C(=O)c3ccc(C)o3)C2c2ccc(C)cc2)s1 (stereo not drawn)	inconclusive: 11.2 µM [inhibitor, partial curve, poor fit]
FC(F)(F)c1cc(Cl)c2nc(-c3ccccc3)cn2c1	inactive
CC(=O)NC(c1cc(Cl)c2cccnc2c1O)C(C)C (stereo not drawn)	active: 3.16 µM
O=C(N/N=C/C1CC=CCC1)c1ccccc1O (stereo not drawn)	inactive
CC(=O)Nc1ccc(S(=O)(=O)NNc2ccc([N+](=O)[O-])cc2)cc1	inconclusive: 10 µM [inhibitor, single point]

Three neighbouring records from above:
SMILES	Potency
CCC(Sc1nnnn1C)C(=O)Nc1ccc(C(C)=O)cc1 (stereo not drawn)	inactive
Cc1cc(Oc2ccc(=O)n(C)n2)nc(SCc2ccccc2)n1	inconclusive: 11.2 µM [inhibitor, single point]
Nc1cc2ccncc2c2ccccc12	inconclusive: 12.6 µM [inhibitor, single point]

(continued)

SMILES	Potency
CC[C@H](CO)Nc1nc(Nc2cccc(Cl)c2)c2ncn(C(C)C)c2n1	inconclusive: 4.47 µM [inhibitor, partial curve]
ClCC1NCC(c2ccccc2Cl)c2c1[nH]c1ccccc21 (stereo not drawn)	inconclusive: 11.2 µM [inhibitor, single point]
CC(C)CN(C(=O)c1cccs1)C1CCS(=O)(=O)C1 (stereo not drawn)	inactive
O=C(Nc1ccc2oc(=O)c(C(=O)O)cc2c1)Oc1ccccc1	inactive
CN(c1ccccc1)C1CCCCC1NS(=O)(=O)c1ccc(Cl)cc1 (stereo not drawn)	inconclusive: 12.6 µM [inhibitor, single point]
CCC1CCCCN1CCCNC(=O)c1ccc2nc(N3CCC(C)CC3)sc2c1 (stereo not drawn)	inconclusive: 3.98 µM [inhibitor, partial curve, poor fit]
CC(C)(C)c1ccc(C(=O)N2CCN(CCNC(=O)C(=O)NCc3ccc(Cl)cc3)CC2)cc1	inactive
COc1cc(OC)c2c(-c3cccc(-c4cccc(N)c4)c3)cc(=O)oc2c1	inconclusive: 10 µM [inhibitor, partial curve]
COc1cc(OC)c(C2=NOC(C(=O)NCc3cccnc3)C2)cc1Cl (stereo not drawn)	active: 10 µM
CC(=O)OCC(=O)Nc1c(C)cccc1C	inconclusive: 5.62 µM [inhibitor, partial curve, poor fit]
CCOc1cc(N2CCOCC2)c(OCC)cc1NC(C)C(=O)N1CCC(C)CC1 (stereo not drawn)	inactive
CCOC(=O)c1c(NC(=O)/C=C\C(=O)O)sc(C)c1-c1ccccc1	inactive
Oc1ccccc1C1=NN(c2ccccc2)C(c2ccccc2)C1 (stereo not drawn)	inconclusive: 11.2 µM [inhibitor, partial curve, poor fit]
COC(=O)[C@H](CC(C)C)N(Cc1ccccc1)S(=O)(=O)N(Cc1ccccc1)[C@@H](CC(C)C)C(=O)OC	inactive
CN(C)S(=O)(=O)c1ccc(N2CCN(S(=O)(=O)c3ccc(F)cc3)CC2)c(Cl)c1	inconclusive: 5.62 µM [inhibitor, single point]
Cc1ccc(C(=O)Nc2ccc3c(c2)ncn3C)cc1	inactive
c1ccc(-c2ccc(-c3nc(-c4ccccn4)no3)cc2)cc1	inconclusive: 0.316 µM [inhibitor, partial curve, poor fit]
N#CC1(c2ccccc2)CCC(=NNS(=O)(=O)c2ccccc2)CC1 (stereo not drawn)	inconclusive: 12.6 µM [inhibitor, single point]
Cc1cc(NC(=O)CCCN2C(=O)/C(=C\c3cccs3)SC2=S)no1	inactive
Cc1cc(C(=O)Nc2ccc(N3CCOCC3)c(Cl)c2)c(C)o1	inconclusive: 3.55 µM [inhibitor, partial curve, poor fit]
COc1ccc(S(=O)(=O)N2CCN(c3ccc4nnc(-c5ccccc5)n4n3)CC2)cc1	inconclusive: 12.6 µM [inhibitor, single point]
N#Cc1ncc(Cc2ccccc2)nc1C#N	inconclusive: 14.1 µM [inhibitor, single point]
